Results reported in paper PMC12591158.
These are yes or no findings as the source states them, for the method shown. Binding seen in cells or lysates may run through a third protein. Some entries that bind do so weakly or less than the wild type.

Protein sequences, listed by entry. Tags and fused reporters are not part of them.
UniProt Q9Y572: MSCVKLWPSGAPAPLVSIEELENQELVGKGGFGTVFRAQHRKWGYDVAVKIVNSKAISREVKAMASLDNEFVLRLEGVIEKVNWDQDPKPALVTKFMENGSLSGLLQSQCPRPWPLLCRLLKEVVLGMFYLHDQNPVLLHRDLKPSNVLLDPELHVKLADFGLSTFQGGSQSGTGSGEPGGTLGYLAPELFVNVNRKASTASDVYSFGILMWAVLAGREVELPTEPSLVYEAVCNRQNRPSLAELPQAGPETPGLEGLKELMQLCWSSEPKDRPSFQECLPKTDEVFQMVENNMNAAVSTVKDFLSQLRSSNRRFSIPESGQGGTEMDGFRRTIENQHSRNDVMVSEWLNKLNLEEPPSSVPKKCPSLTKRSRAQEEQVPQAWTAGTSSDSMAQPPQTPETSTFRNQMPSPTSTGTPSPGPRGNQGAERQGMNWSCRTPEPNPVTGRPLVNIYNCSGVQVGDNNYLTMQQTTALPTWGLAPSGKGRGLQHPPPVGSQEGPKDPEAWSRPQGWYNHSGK

Target: HA-RIPK3 overexpressed in Beas-2B-ZBP1-EF3-AT cells (UniProt Q9Y572)
Experiment: co-IP

B1: ZBP1 constitutively expressed in Beas-2B-ZBP1-EF3-AT cells (protein, UniProt Q9H171 1-429)
chain: MAQAPADPGREGHLEQRILQVLTEAGSPVKLAQLVKECQAPKRELNQVLYRMKKELKVSLTSPATWCLGGTDPEGEGPAELALSSPAERPQQHAATIPETPGPQFSQQREEDIYRFLKDNGPQRALVIAQALGMRTAKDVNRDLYRMKSRHLLDMDEQSKAWTIYRPEDSGRRAKSASIIYQHNPINMICQNGPNSWISIANSEAIQIGHGNIITRQTVSREDGSAGPRHLPSMAPGDSSTWGTLVDPWGPQDIHMEQSILRRVQLGHSNEMRLHGVPSEGPAHIPPGSPPVSATAAGPEASFEARIPSPGTHPEGEAAQRIHMKSCFLEDATIGNSNKMSISPGVAGPGGVAGSGEGEPGEDAGRRPADTQSRSHFPRDIGQPITPSHSKLTPKLETMTLGNRSHKAAEGSHYVDEASHEGSWWGGGI
binding: binds
